Results: US4332787A, “Assay for beta-adrenergic antagonists and antibody therefor” (The Massachusetts General Hospital, priority 1980, dated 1982)

Target: antibody (antiacebutolol amine immune serum)
Assay: Competitive binding inhibition of 3H-(-)-propranolol to anti-acebutolol amine antibody (radioimmunoassay)
Set-up: species or system rabbit
Conditions: 3H-(-)-propranolol displacement from antibody; read-out: apparent KD (competitive binding inhibition)
Method: Acebutolol amine having the formula: [drawing 3] was covalently linked to lysozyme. 150 mg of acebutolol amine was dissolved in 1.0 N HCl and was cooled to 0° C. in a salt ice bath. To this solution was added 1 cc of 0.5 M NaNO2 also at 0° C. and the resultant mixture was allowed to stand at 0° C. for 10 min. A mixture of 200 mg crystalline lysozyme in 15% aqueous sodium carbonate at 0° C. was added to 2.0 cc of the above mixture. […] The resultant product was dialyzed against phosphate buffered saline and the purified conjugate was frozen in dry ice-acetone and stored at -20° C. The product then was thawed and centrifuged for 10 min at 3000 rpm. The supernatant was recovered and mixed with Tris buffer, pH 7 at a concentration of 30 mg/ml.
Albino rabbits were immunized with this conjugate at monthly intervals for four months. Each rabbit received intracutaneous toepad injections of 0.5 mg of protein emulsified in complete Freund's adjuvant.
The assays were performed in triplicate. […] For each determination, an identical volume of preimmune serum was assayed as a control for antibody binding. […] Bound radioactivity was counted in the presence of 10 ml of Aquasol-2 (New England Nuclear) in a Packard Tricarb liquid scintillation counter with a counting efficiency of 40%. […]

CC(C)NCC(O)COc1cccc2ccccc12 (racemic) [propranolol]
Kd: 10 nM
